In PMC3177862, “Characterization of the Biosynthesis, Processing and Kinetic Mechanism of Action of the Enzyme Deficient in Mucopolysaccharidosis IIIC” (PLoS ONE, 2011):
Results are given in words; binding and its absence hold for the method and conditions named. In cells and extracts the contact can be indirect. Some entries that bind do so weakly or less than the wild type. Tags and fused reporters may be left off the sequences shown.

Molecular target: T1, N-acetyltransferase beta-chain (44 kDa, Gly145-Ile635) with C-terminal His8Flag (human) (UniProt Q68CP4)
T1 sequence (chain, Asn-linked oligosaccharides (2 potential sites; complex type only)): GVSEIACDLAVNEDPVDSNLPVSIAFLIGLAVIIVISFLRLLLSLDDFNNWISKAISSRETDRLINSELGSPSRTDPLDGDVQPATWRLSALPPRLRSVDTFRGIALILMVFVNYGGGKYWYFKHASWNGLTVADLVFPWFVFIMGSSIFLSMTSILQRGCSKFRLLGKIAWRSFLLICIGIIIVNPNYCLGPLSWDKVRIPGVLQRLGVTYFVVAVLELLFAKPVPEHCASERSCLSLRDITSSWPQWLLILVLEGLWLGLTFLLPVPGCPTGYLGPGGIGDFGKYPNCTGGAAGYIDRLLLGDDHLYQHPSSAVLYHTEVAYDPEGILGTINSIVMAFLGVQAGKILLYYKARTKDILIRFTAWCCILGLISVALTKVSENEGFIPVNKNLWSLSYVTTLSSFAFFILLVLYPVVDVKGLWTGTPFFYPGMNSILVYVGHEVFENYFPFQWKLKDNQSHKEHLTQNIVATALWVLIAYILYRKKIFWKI
Experiment: co-IP; DDM extract (diluted to 0.2% DDM) of stably transfected HeLa cells on mouse anti-Flag M2 affinity gel overnight at 4°C, washed with 0.02% DDM in TBS, eluted with FLAG peptide or SDS sample buffer; reducing SDS-PAGE, SYPRO Ruby stain and Western blots with Flag and N-terminal antibodies

binding: binds
B1: N-acetyltransferase alpha-chain (27 kDa, Lys43-Asn144) (domain or fragment, UniProt Q68CP4-2 43-144)
chain: KKRHAELKMDQALLLIHNELLWTNLTVYWKSECCYHCLFQVLVNVPQSPKAGKPSAAAASVSTQHGSILQLNDTLEEKEVCRLEYRFGEFGNYSLLVKNIHN
modifications: Asn-linked oligosaccharides (3 potential sites; high mannose and complex types)
